Results taken from patent US10161008B2, “miR-193a-3p and associated genes predict tumorigenesis and chemotherapy outcomes” (Genedia Biotech Co., Ltd., priority 2011, dated 2018).
Some results were stated once for a whole list of compounds, not compound by compound.

Each molecule was assayed on HCC cell lines (assay: IC50 profiling of eight HCC cell lines).
Type: cell-based, human
`CC(=O)O[C@@]12CO[C@@H]1C[C@H](O)[C@@]1(C)C(=O)[C@H](O)C3=C(C)[C@@H](OC(=O)[C@H](O)[C@@H](NC(=O)OC(C)(C)C)c4ccccc4)C[C@@](O)([C@@H](OC(=O)c4ccccc4)[C@H]21)C3(C)C` [docetaxel] was tested, and the “IC50 difference among HCC cell lines” value was “no more than 17 fold”.
In the case of `COc1cccc2c1C(=O)c1c(O)c3c(c(O)c1C2=O)C[C@@](O)(C(=O)CO)C[C@@H]3O[C@H]1C[C@H](N)[C@@H](O)[C@H](C)O1` [epirubicin], the “IC50 difference among HCC cell lines” value is reported as “no more than 17 fold”.
For `CO[C@@]12[C@H](COC(N)=O)C3=C(C(=O)C(C)=C(N)C3=O)N1C[C@@H]1N[C@@H]12` [mitomycin], the “IC50 difference among HCC cell lines” value was “no more than 17 fold”.
In the case of `CC(=O)O[C@H]1C(=O)[C@@]2(C)[C@H]([C@H](OC(=O)c3ccccc3)[C@]3(O)C[C@H](OC(=O)[C@H](O)[C@@H](NC(=O)c4ccccc4)c4ccccc4)C(C)=C1C3(C)C)[C@]1(OC(C)=O)CO[C@@H]1C[C@@H]2O` [paclitaxel], the “IC50 difference among HCC cell lines” value is reported as “no more than 17 fold”.
In the case of `CCC1=C[C@@H]2CN(C1)Cc1c([nH]c3ccccc13)[C@@](C(=O)OC)(c1cc3c(cc1OC)N(C)[C@H]1[C@@](O)(C(=O)OC)[C@H](OC(C)=O)[C@]4(CC)C=CCN5CC[C@]31[C@@H]54)C2` [vinorelbine], the “IC50 difference among HCC cell lines” value is reported as “no more than 17 fold”.
